These results are taken from article PMC6753678, “Fueling Open Innovation for Malaria Transmission-Blocking Drugs: Hundreds of Molecules Targeting Early Parasite Mosquito Stages” (Frontiers in Microbiology, 2019).

The subject of the first series is P. berghei ookinete development.
Details: not given
As for `Cc1[nH]c(C)c(-c2ccc(Nc3ccc(C(F)(F)F)cn3)cc2)c(=O)c1Br` [TCMDC-135546], the “Assay tox ratio Pb ODA (red: <10-fold selectivity; green: >10-fold)” value is recorded as 179.31. Turning to `COc1ccc(C23Oc4cc(OC)cc(OC)c4C2(O)C2(CC3c3ccccc3)SCCCS2)cc1` (centres unmarked) [TCMDC-132098], the “Assay tox ratio Pb ODA” value came out at 249.66. With `COc1ccc2nccc(N3CCC(NCCNCc4ccc5c(n4)NC(=O)CO5)C3)c2n1.Cl` (centres unmarked) [TCMDC-134548], the “Assay tox ratio Pb ODA” value was determined as 26.25. In the case of `COc1ccc(Nc2ncc(Cl)c(Nc3cccnc3C(N)=O)n2)cc1N1CCN(C)CC1.Cl` [TCMDC-134163], the “Assay tox ratio Pb ODA (red: <10-fold selectivity; green: >10-fold)” value stood at 29.56. As to `CCC1=C[C@@H]2CN(C1)Cc1c([nH]c3ccccc13)[C@@](C(=O)OC)(c1cc3c(cc1OC)N(C)[C@H]1[C@@](O)(C(=O)OC)[C@H](O)[C@]4(CC)C=CCN5CC[C@]31[C@@H]54)C2.O=S(=O)(O)O` [TCMDC-137769], the “Assay tox ratio Pb ODA” value came to 112.98. Regarding `CCOC(=O)c1c[nH]c2c(ccc3ccccc32)c1=O` [TCMDC-123857], the “Assay tox ratio Pb ODA” value turned out to be 177.95. As to `Cl.Nc1nc(N)c2c(ccc3c2cnn3S(=O)(=O)N2CCCC2)n1` [TCMDC-137852], the “Assay tox ratio Pb ODA (red: <10-fold selectivity; green: >10-fold)” value was determined as 0.00269. As to `Cc1noc(C)c1-c1ccc2c(Nc3ccc(C(F)(F)F)cc3)c(C(N)=O)cnc2c1.Cl` [TCMDC-136019], the “Assay tox ratio Pb ODA (red: <10-fold selectivity; green: >10-fold)” value is 8.97.

On to `Cc1[nH]c2ccccc2c1C(=O)C(C)Sc1nnc(-c2ccccc2F)o1` (centres unmarked) [TCMDC-125312], for which the “Assay tox ratio Pb ODA” value was 22.30. For `CC1=CC(=O)[C@@H](O)[C@]2(C)[C@H]3[C@@]4(O)OC[C@@]35[C@@H](C[C@@H]12)OC(=O)C[C@H]5[C@@H](C)[C@H]4O` [TCMDC-142261], the “Assay tox ratio Pb ODA” value worked out at 479.32. Consider `CC(=O)c1ccc(NC(=O)Nc2ccc(N(C)c3ccnc(Nc4cccc(CS(C)(=O)=O)c4)n3)cc2)cc1` [TCMDC-138736], for which the “Assay tox ratio Pb ODA” value was determined as 10.45. On the same count and under the same terms, for `O=C(Nc1ccc(OC2CCN(Cc3ccc(F)cc3)C2)c(Cl)c1)c1ccc(F)cc1.O=C(O)C(F)(F)F` (centres unmarked) [TCMDC-133763] the value was 8.33.

As for `Cc1noc(C)c1-c1ccc2c(Nc3ccc(C#N)cc3)c(C(N)=O)cnc2c1` [TCMDC-136029], the “Assay tox ratio Pb ODA (red: <10-fold selectivity; green: >10-fold)” value came to 18.07. The same measure, in the same setting: for `COc1ccc2ncc(F)c(CCN3CCC(NCc4cc(Br)c5c(c4)OCCO5)CC3)c2n1.Cl` [TCMDC-136211] the value was 4.26. Turning to `CCOC(=O)c1c(-c2ccccc2)nc2c(sc3ccccc32)c1O` [TCMDC-131540], the “Assay tox ratio Pb ODA” value is recorded as 76.29. For the compound `O=C(c1cccs1)N1CCN(c2ccc([N+](=O)[O-])c(NC3CC3)c2)CC1` [TCMDC-123877], the “Assay tox ratio Pb ODA” value stood at 58.89. `Cc1ccc(Cn2c(N3CCC(C(=O)NCc4ccccn4)CC3)nc3ccccc32)cc1` [TCMDC-125442]: the “Assay tox ratio Pb ODA” value is recorded as 58.52. For the compound `Br.CCC(ON1C(N)=NC(N)=NC1(C)C)c1ccc(Cl)cc1` (centres unmarked) [TCMDC-131709], the “Assay tox ratio Pb ODA (red: <10-fold selectivity; green: >10-fold)” value is reported as 0.00157. For `COc1ccc2nccc(NC(=O)C3CCC(NCc4cnc(SC)c([N+](=O)[O-])c4)CC3)c2n1.Cl` (centres unmarked) [TCMDC-131238], the “Assay tox ratio Pb ODA (red: <10-fold selectivity; green: >10-fold)” value stood at 6.08. Take `C=CCC1OC(=O)c2cc(OC)cc(OC)c21` (centres unmarked) [TCMDC-138677]: the “Assay tox ratio Pb ODA” value is listed as 1.03.

As for `CC1CN(Cc2ccc(-c3ccc(-c4nc5ccccc5[nH]4)cc3)cc2)CC(C)O1.O=C(O)C(F)(F)F` (centres unmarked) [TCMDC-133828], the “Assay tox ratio Pb ODA (red: <10-fold selectivity; green: >10-fold)” value stood at 34.80. On to `COc1ccc2ncc(F)c(CCN3CCC(NCc4cc(C)c5c(c4)OCCO5)CC3)c2n1.Cl` [TCMDC-136209], for which the “Assay tox ratio Pb ODA (red: <10-fold selectivity; green: >10-fold)” value amounted to 12.28.

In the case of `CN1CCN(c2ccc(Nc3ncc(Cl)c(Nc4cccnc4C(N)=O)n3)cc2)CC1.Cl` [TCMDC-134164], the “Assay tox ratio Pb ODA (red: <10-fold selectivity; green: >10-fold)” value turned out to be 20.44. For `Cc1ccc2c(=O)c3cc(C)ccc3[nH]c2c1` [TCMDC-138194], the “Assay tox ratio Pb ODA” value was 293.83.

As to `Cl.O=c1cc(NCCCNCc2sc(Br)c(Br)c2Br)[nH]c2ccccc12` [TCMDC-139647], the “Assay tox ratio Pb ODA” value is recorded as 17.65. As for `Nc1nc(N)c2c(Cl)c(N3CCOCC3)ccc2n1` [TCMDC-137868], the “Assay tox ratio Pb ODA” value is reported as 0.00226.

As to `CCCCCCCCc1c(C)[nH]c(C)c(C#N)c1=O` [TCMDC-137431], the “Assay tox ratio Pb ODA” value amounted to 75.45. The same measure, in the same setting: for `CN1CCN(CC(=O)Nc2ccc(-c3ccc(-c4nc5ccccc5[nH]4)cc3)cc2)CC1` [TCMDC-136979] the value was 5.16. For `COc1ccc2nccc([C@@H](O)CN3CCC(NCc4ccc5c(c4)NC(=O)CO5)CC3)c2c1.Cl` [TCMDC-140793], the “Assay tox ratio Pb ODA (red: <10-fold selectivity; green: >10-fold)” value is 7.76. For the compound `Cc1ccc2[nH]c(C)c(Br)c(=O)c2c1` [TCMDC-124347], the “Assay tox ratio Pb ODA” value amounted to 40.76.

On to `O=C(Nc1ccc(OC2CCN(Cc3ccc(F)cc3)CC2)c(Cl)c1)c1cccs1.O=C(O)C(F)(F)F` [TCMDC-133746], for which the “Assay tox ratio Pb ODA (red: <10-fold selectivity; green: >10-fold)” value is listed as 33.41.

As to `O=C(Nc1ccc(N2CCCN(Cc3cccc(F)c3)CC2)cc1)c1cccs1.O=C(O)C(F)(F)F` [TCMDC-135012], the “Assay tox ratio Pb ODA (red: <10-fold selectivity; green: >10-fold)” value stood at 41.41. For `Nc1nc(N)c2c(ccc3c2ncn3Cc2ccccc2)n1` [TCMDC-137749], the “Assay tox ratio Pb ODA” value is on record as 0.26. Consider `CC[C@H]1CN2CCc3cc(OC)c(OC)cc3[C@@H]2C[C@@H]1C[C@H]1NCCc2c1cc(OC)c(O)c2Cl` [TCMDC-131802], for which the “Assay tox ratio Pb ODA (red: <10-fold selectivity; green: >10-fold)” value was 16.86.

With `CCCCC1=CC2C(=O)C(C(=O)OC)=CN=C2C=C1OCc1ccccc1` (centres unmarked) [TCMDC-137492], the “Assay tox ratio Pb ODA” value is 33.09. With `NC(=O)c1ccccc1Nc1nc(Nc2cc[nH]n2)ncc1Cl` [TCMDC-134169], the “Assay tox ratio Pb ODA (red: <10-fold selectivity; green: >10-fold)” value is 25.69. Take `Cc1ccc(Nc2nc(N/N=C/c3cccc(O)c3)nc(Nc3ccc([N+](=O)[O-])cc3)n2)cc1C` [TCMDC-124125]: the “Assay tox ratio Pb ODA” value is 26.12. As to `COc1ccc2ncc(F)c(CCN3C4CCC3CC(NCc3ccc5c(c3)OCCO5)C4)c2n1.Cl` (centres unmarked) [TCMDC-135638], the “Assay tox ratio Pb ODA (red: <10-fold selectivity; green: >10-fold)” value is listed as 9.39.

Turning to `Cc1cc(=O)[nH]c(-n2nc(C)cc2NC(=O)C2(c3ccc(Cl)cc3)CCCC2)n1` [TCMDC-124943], the “Assay tox ratio Pb ODA (red: <10-fold selectivity; green: >10-fold)” value was found to be 2.40. The same measure, in the same setting: for `CC(C)Cn1ncc2c3c(N)nc(N)nc3ccc21` [TCMDC-137970] the value was 0.06. As for `Cc1noc(C)c1-c1cccc(CNCc2ccc(-c3ccc(-c4nc5cccc(C)c5[nH]4)cc3)cc2)c1.O=C(O)C(F)(F)F` [TCMDC-133061], the “Assay tox ratio Pb ODA” value was 2.98. As for `COc1cc(-c2nc(C(C)(C)CN)[nH]c2-c2ccncc2)ccc1Br.Cl` [TCMDC-140674], the “Assay tox ratio Pb ODA (red: <10-fold selectivity; green: >10-fold)” value turned out to be 30.11. Regarding `O=C(O)C(F)(F)F.O=c1[nH]ccc2nc(N[C@@H]3CCCNC3)nc(Nc3ccc(S(=O)(=O)N4CCOCC4)cc3)c12` [TCMDC-135038], the “Assay tox ratio Pb ODA” value worked out at 29.58. Regarding `COc1ccc2nc3cc(Cl)ccc3c(NCc3ccccc3)c2c1.Cl` [TCMDC-137663], the “Assay tox ratio Pb ODA (red: <10-fold selectivity; green: >10-fold)” value worked out at 25.54. As to `Cc1ccc(C2=NNC3(S2)C(=O)N(C)c2ccccc23)cc1` (centres unmarked) [TCMDC-123863], the “Assay tox ratio Pb ODA” value is reported as 23.32.

The same series, now with this note: unified cytotox / IC50; <10-fold red, >10-fold green.
On to `CCN1CCN(CCNc2c3ccccc3nc3ccccc23)CC1.Cl` [TCMDC-137545], for which the “Assay tox ratio Pb ODA” value came to 6.60. On the same count and under the same terms, as for `CCC(C(C)C)n1ccc2c3c(N)nc(N)nc3ccc21` (centres unmarked) [TCMDC-137872], the figure is 0.00358; as for `COc1ccc(Oc2ccc(-c3c(C)[nH]c(C)c(Cl)c3=O)cc2)cc1` [TCMDC-136134], 237.00. Turning to `Cc1[nH]c(C)c(-c2ccc(OCc3ccc(OC(F)(F)F)cc3)nc2)c(=O)c1Br` [TCMDC-135254], the “Assay tox ratio Pb ODA” value stood at 51.72.

Take `Cc1[nH]c(C)c(-c2ccc(-c3cccc(Cl)c3)nc2)c(=O)c1Cl` [TCMDC-136300]: the “Assay tox ratio Pb ODA” value is reported as 83.30. On the same count and under the same terms, as for `Cc1[nH]c(C)c(-c2ccc(CCc3ccc(C(F)(F)F)cc3)nc2)c(=O)c1Cl` [TCMDC-136051], the figure is 395.77.

With `COc1ccc2ncc(C#N)c(CCN3C4CCC3CC(NCc3ccc5c(n3)NC(=O)CS5)C4)c2c1.Cl` (centres unmarked) [TCMDC-135180], the “Assay tox ratio Pb ODA” value was 2.10. In the case of `CC(C)N1CCN(CCCCNc2c3ccccc3nc3ccccc23)CC1.Cl` [TCMDC-137573], the “Assay tox ratio Pb ODA” value was found to be 1.99. With `Cl.c1ccc(CN2CCN(CCNc3c4ccccc4nc4ccccc34)CC2)cc1` [TCMDC-137571], the “Assay tox ratio Pb ODA” value was 8.29.

As for `C=CC(C)C1OC(=O)c2cc(OC)cc(OC)c21` (centres unmarked) [TCMDC-138676], the “Assay tox ratio Pb ODA” value is given as 2.06. On to `Cn1c(Sc2ncnc3sccc23)nc2ccccc21` [TCMDC-124514], for which the “Assay tox ratio Pb ODA” value was 252.18. Regarding `Cc1[nH]c(C)c(-c2ccc(-c3ccccc3C(F)(F)F)nc2)c(=O)c1Br` [TCMDC-135881], the “Assay tox ratio Pb ODA” value is 102.81. With `Cc1ccc(-n2c(Sc3ncnc4sccc34)nnc2N2CCCC2)cc1` [TCMDC-125247], the “Assay tox ratio Pb ODA” value is on record as 368.36. As to `Cl.NCC1(c2nc(-c3ccc(Cl)c(O)c3)c(-c3ccncc3)[nH]2)CCCCC1` [TCMDC-141154], the “Assay tox ratio Pb ODA” value turned out to be 29.18. As for `Nc1nc(N)c2c(ccc3c2ccn3Cc2ccccn2)n1` [TCMDC-137980], the “Assay tox ratio Pb ODA” value is 0.00316. Turning to `COc1ccc2ncc(Cl)c(CCN3CCC(NCc4ccc5c(n4)NC(=O)CS5)CC3)c2c1.Cl` [TCMDC-141807], the “Assay tox ratio Pb ODA” value stood at 11.53.

With `Cc1[nH]c(C)c(-c2ccc(CCc3cccc(C(F)(F)F)c3)nc2)c(=O)c1Cl` [TCMDC-136014], the “Assay tox ratio Pb ODA” value is recorded as 57.71.

In the case of `COc1ccc2nccc([C@@H](O)CN3CCC(NC(=O)c4cc5ccccc5[nH]4)CC3)c2c1.CS(=O)(=O)O` [TCMDC-140780], the “Assay tox ratio Pb ODA” value came out at 212.13. Consider `Cc1[nH]c(C)c(-c2ccc(OCc3ccccc3C(F)(F)F)nc2)c(=O)c1Br` [TCMDC-135796], for which the “Assay tox ratio Pb ODA” value came to 71.73. As for `Cc1[nH]c(C)c(-c2ccc(OCc3ccc(F)cc3)nc2)c(=O)c1Br` [TCMDC-135657], the “Assay tox ratio Pb ODA” value was 167.43.
